# ± gives the standard error. Many of these values have a large error.
# B1: glmS ribozyme (parent)
# chain: AUAAAAGCGCCAGAACUACAGAAAUGUAGUUGACGAGGAGGAGGUUUAUCGAAUUUUCGGCGGAUGCCUCCAAA
# Variants of: B1
# Assay: self-cleavage kobs at 40 uM GlcN6P; higher = faster cleavage; RNA array
# Conditions: with glucosamine-6-phosphate
# Outline: (§1)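 Tiles of sequenced MiSeq chips were imaged over ~14 h at 37 °C. On them, barcoded ribozyme variants had been transcribed in situ by E. coli RNA polymerase and were tracked via a hybridised Cy3 probe while glucosamine-6-phosphate (40 μM to 10 mM) in HEPES/KCl/Mg(OAc)2 buffer flowed in. Per-tile medians, normalised to baseline and to non-cleaving reference variants, were fit to one- or two-exponential decays for kobs, and weighted Michaelis–Menten fits gave kcat and KM.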
row,Variant,self-cleavage kobs at 40 uM GlcN6P
1,A15G C50G,3.49e-05 ± 2.3e-05 s⁻¹
2,A48C,< 1e-05 s⁻¹
3,A53C C71G,3.66e-05 ± 2e-05 s⁻¹
4,A15U G29A G32A,3.67e-05 ± 2e-05 s⁻¹
5,C58G C68U,1.93e-05 ± 1.4e-05 s⁻¹
6,G7U C70A,0.000149 ± 8.8e-05 s⁻¹
7,U46C U56C,3.65e-05 ± 2e-05 s⁻¹
8,U31G C70G,1.83e-05 ± 1.6e-05 s⁻¹
9,U31G C70A,2.86e-05 ± 2.6e-05 s⁻¹
10,C11U A39U,1.49e-05 ± 1.5e-05 s⁻¹
11,G7U C50G G63A,3.8e-05 ± 2.2e-05 s⁻¹
12,G29A C50G U54A,3.17e-05 ± 2.4e-05 s⁻¹
13,G29C A53C,1.98e-05 ± 1.6e-05 s⁻¹
14,A36U U69G C71A,4.75e-05 ± 3.4e-05 s⁻¹
15,U31A C50U C70G,2.91e-05 ± 2.6e-05 s⁻¹
16,A12G A14G A39G C50A U54G C61A C68G C70U,4.43e-05 ± 3.3e-05 s⁻¹
17,A14C C70G,2.38e-05 ± 1.4e-05 s⁻¹
18,C10G G38A C50G,2.88e-05 ± 2.3e-05 s⁻¹
19,A52G U69C C70G,2.99e-05 ± 2.5e-05 s⁻¹
20,G37A G40A,3.4e-05 ± 1.9e-05 s⁻¹

# Quoted at random: 6 entries already listed
row,Variant,self-cleavage kobs at 40 uM GlcN6P
10,C11U A39U,1.49e-05 ± 1.5e-05 s⁻¹
5,C58G C68U,1.93e-05 ± 1.4e-05 s⁻¹
2,A48C,< 1e-05 s⁻¹
9,U31G C70A,2.86e-05 ± 2.6e-05 s⁻¹
13,G29C A53C,1.98e-05 ± 1.6e-05 s⁻¹
18,C10G G38A C50G,2.88e-05 ± 2.3e-05 s⁻¹

# Following part

row,Variant,self-cleavage kobs at 40 uM GlcN6P
1,A6U C50A G60C C68G,5.23e-05 ± 2.8e-05 s⁻¹
2,C10A A52U G62U C70G,3.33e-05 ± 2.1e-05 s⁻¹
3,A14C U69A,1.97e-05 ± 1.9e-05 s⁻¹
4,G37A C71A,1.89e-05 ± 1.5e-05 s⁻¹
5,C11U C16G C70G,4.36e-05 ± 2.6e-05 s⁻¹
6,A39C G66U,1.4e-05 ± 1.4e-05 s⁻¹
7,A12G U55C,2.33e-05 ± 2.2e-05 s⁻¹
8,A12G U55G,2.93e-05 ± 1.6e-05 s⁻¹
9,C50U A53U U69G,2.27e-05 ± 2.2e-05 s⁻¹
10,G7A C50G G63C,4.52e-05 ± 3e-05 s⁻¹
11,A12C G29C C70U,2.09e-05 ± 1.6e-05 s⁻¹
12,U31A A33C G35A U69G,0.00056 ± 0.00032 s⁻¹
13,C11G G51A U65A C67G,2.33e-05 ± 2.2e-05 s⁻¹
14,U47G U55A C68G C71G,3.54e-05 ± 2.1e-05 s⁻¹
15,A14C U30C A42G C70G,3.43e-05 ± 2.9e-05 s⁻¹
16,C11A A36U U56A C68G C70A,3.05e-05 ± 2.9e-05 s⁻¹
17,A15G C16G C50G U54C,2.49e-05 ± 2.3e-05 s⁻¹
18,A14U C70A,1.71e-05 ± 1.4e-05 s⁻¹
19,G13U A64G,1.27e-05 ± 8.4e-06 s⁻¹
20,C8G G51U U69G,7.88e-05 ± 5e-05 s⁻¹

row,Variant,self-cleavage kobs at 40 uM GlcN6P
1,U57A C67G,2.59e-05 ± 1.4e-05 s⁻¹
2,U45G C70G,2.15e-05 ± 1.8e-05 s⁻¹
3,G7U A48U C50A C67G,3.31e-05 ± 2.2e-05 s⁻¹
4,U30G U65G,2.28e-05 ± 1.2e-05 s⁻¹
5,A36C C50G,4.05e-05 ± 2.3e-05 s⁻¹
6,A52G C58U C61A,1.86e-05 ± 1.7e-05 s⁻¹
7,G37A U55C,2.07e-05 ± 1.3e-05 s⁻¹
8,G21U G41C C70U,3.85e-05 ± 2.4e-05 s⁻¹
9,G13A C16U C58G C67G,3.42e-05 ± 3e-05 s⁻¹
10,G13U C67U,1.73e-05 ± 1.2e-05 s⁻¹
11,A15G C16A C70U,3.05e-05 ± 1.9e-05 s⁻¹
12,G9A U69G,5.56e-05 ± 2.9e-05 s⁻¹
13,U57G A64U U69G,2.83e-05 ± 1.9e-05 s⁻¹
14,A52G C71A,2.53e-05 ± 1.7e-05 s⁻¹
15,C50G G60U,0.000896 ± 0.00079 s⁻¹
16,G35A U57G C68G,4.08e-05 ± 2.4e-05 s⁻¹
17,A12U A15U G29A,4.66e-05 ± 2.4e-05 s⁻¹
18,C67U U69G,1.45e-05 ± 1.3e-05 s⁻¹

# Variants of: B1
# Assay: self-cleavage kobs at 10000 uM GlcN6P; higher = faster cleavage; RNA array
# Conditions: with glucosamine-6-phosphate
# Outline: as §1
row,Variant,self-cleavage kobs at 10000 uM GlcN6P
1,A15G C50G,2.54e-05 ± 2.1e-05 s⁻¹
2,G7U C70A,6.61e-05 ± 4.3e-05 s⁻¹
3,G7U C50G G63A,2.31e-05 ± 1.7e-05 s⁻¹
4,G29A C50G U54A,2.84e-05 ± 2e-05 s⁻¹
5,C10U A12C A39U,1.91e-05 ± 1.4e-05 s⁻¹
6,C11G G51A U65A C67G,2.47e-05 ± 1.8e-05 s⁻¹
7,A36C C50G,2.48e-05 ± 2e-05 s⁻¹
8,G13A C16U C58G C67G,2.28e-05 ± 1.5e-05 s⁻¹
9,C67U U69G,1.26e-05 ± 1.1e-05 s⁻¹

# Variants of: B1
# Assay: self-cleavage kobs at 640 uM GlcN6P; higher = faster cleavage; RNA array
# Conditions: with glucosamine-6-phosphate
# Outline: as §1
row,Variant,self-cleavage kobs at 640 uM GlcN6P
1,G7A A14C G37U G60A C67G,2.86e-05 ± 2.1e-05 s⁻¹
2,C10U U31C U56A C68G,3.06e-05 ± 2.9e-05 s⁻¹
3,A6G C11G U69G,4.5e-05 ± 3.1e-05 s⁻¹
4,C10U G29U C61A C67G,3.8e-05 ± 2.4e-05 s⁻¹
5,A6G C11G C68A,2.95e-05 ± 2.5e-05 s⁻¹
6,C10A C61A,2.95e-05 ± 1.8e-05 s⁻¹
7,G7A U30C C61A C67U,4.7e-05 ± 4.2e-05 s⁻¹
8,C8G C10A C50A C67A,0.00131 ± 0.00076 s⁻¹
9,A6U U31A U47G C50A A64G C68U,2.66e-05 ± 2.6e-05 s⁻¹
10,C11U C16G C70G,0.000216 ± 0.00011 s⁻¹
11,C10U A12C A39U,2.43e-05 ± 1.9e-05 s⁻¹
12,C11A A12C G32U C50G,0.000176 ± 0.0001 s⁻¹
13,C8A A52C U65A C68G,3.4e-05 ± 2.1e-05 s⁻¹
14,G7A C61A,2.78e-05 ± 2.7e-05 s⁻¹
15,C10U C70A,1.93e-05 ± 1.5e-05 s⁻¹
16,A6U G29U C71U,4.19e-05 ± 3.6e-05 s⁻¹
17,C10U A12U A42G,2.6e-05 ± 2.1e-05 s⁻¹
18,C8G A36G U69A,4.98e-05 ± 5e-05 s⁻¹
19,C10G A12G U47G U54C C68U,2.38e-05 ± 2e-05 s⁻¹
20,C10U G35U U57A U65G C68A,0.000454 ± 0.00026 s⁻¹
21,C10A A48G C50U C70G,3.78e-05 ± 2.4e-05 s⁻¹
22,C67U U69G,0.00161 ± 0.00095 s⁻¹

# Variants of: B1
# Assay: self-cleavage kobs at 2500 uM GlcN6P; higher = faster cleavage; RNA array
# Conditions: with glucosamine-6-phosphate
# Outline: as §1
row,Variant,self-cleavage kobs at 2500 uM GlcN6P
1,C10U U31C U56A C68G,2.67e-05 ± 1.9e-05 s⁻¹
2,G7U C70A,2.82e-05 ± 1.8e-05 s⁻¹
3,C10U A12C A39U,2.25e-05 ± 1.8e-05 s⁻¹
4,C11A A36U U56A C68G C70A,5.37e-05 ± 3.2e-05 s⁻¹
5,C10A A48G C50U C70G,3.87e-05 ± 2.9e-05 s⁻¹

# Variants of: B1
# Assay: self-cleavage kobs at 160 uM GlcN6P; higher = faster cleavage; RNA array
# Conditions: with glucosamine-6-phosphate
# Outline: as §1
row,Variant,self-cleavage kobs at 160 uM GlcN6P
1,U31G C70A,3.54e-05 ± 3.1e-05 s⁻¹
2,C10U C70A,1.93e-05 ± 1.4e-05 s⁻¹
3,U57G A64U U69G,5.33e-05 ± 3e-05 s⁻¹

# From the supplement of paper PMC7125110
